Test results reported in PMC8336351.
Results are given in words; binding and its absence hold for the method and conditions named. Binding seen in cells or lysates may run through a third protein. Some entries that bind do so weakly or less than the wild type. Each block holds one binder with its values, some of them ahead of it.

By UniProt entry, the sequences of proteins in these tests, tags left out.
UniProt B2RWS6: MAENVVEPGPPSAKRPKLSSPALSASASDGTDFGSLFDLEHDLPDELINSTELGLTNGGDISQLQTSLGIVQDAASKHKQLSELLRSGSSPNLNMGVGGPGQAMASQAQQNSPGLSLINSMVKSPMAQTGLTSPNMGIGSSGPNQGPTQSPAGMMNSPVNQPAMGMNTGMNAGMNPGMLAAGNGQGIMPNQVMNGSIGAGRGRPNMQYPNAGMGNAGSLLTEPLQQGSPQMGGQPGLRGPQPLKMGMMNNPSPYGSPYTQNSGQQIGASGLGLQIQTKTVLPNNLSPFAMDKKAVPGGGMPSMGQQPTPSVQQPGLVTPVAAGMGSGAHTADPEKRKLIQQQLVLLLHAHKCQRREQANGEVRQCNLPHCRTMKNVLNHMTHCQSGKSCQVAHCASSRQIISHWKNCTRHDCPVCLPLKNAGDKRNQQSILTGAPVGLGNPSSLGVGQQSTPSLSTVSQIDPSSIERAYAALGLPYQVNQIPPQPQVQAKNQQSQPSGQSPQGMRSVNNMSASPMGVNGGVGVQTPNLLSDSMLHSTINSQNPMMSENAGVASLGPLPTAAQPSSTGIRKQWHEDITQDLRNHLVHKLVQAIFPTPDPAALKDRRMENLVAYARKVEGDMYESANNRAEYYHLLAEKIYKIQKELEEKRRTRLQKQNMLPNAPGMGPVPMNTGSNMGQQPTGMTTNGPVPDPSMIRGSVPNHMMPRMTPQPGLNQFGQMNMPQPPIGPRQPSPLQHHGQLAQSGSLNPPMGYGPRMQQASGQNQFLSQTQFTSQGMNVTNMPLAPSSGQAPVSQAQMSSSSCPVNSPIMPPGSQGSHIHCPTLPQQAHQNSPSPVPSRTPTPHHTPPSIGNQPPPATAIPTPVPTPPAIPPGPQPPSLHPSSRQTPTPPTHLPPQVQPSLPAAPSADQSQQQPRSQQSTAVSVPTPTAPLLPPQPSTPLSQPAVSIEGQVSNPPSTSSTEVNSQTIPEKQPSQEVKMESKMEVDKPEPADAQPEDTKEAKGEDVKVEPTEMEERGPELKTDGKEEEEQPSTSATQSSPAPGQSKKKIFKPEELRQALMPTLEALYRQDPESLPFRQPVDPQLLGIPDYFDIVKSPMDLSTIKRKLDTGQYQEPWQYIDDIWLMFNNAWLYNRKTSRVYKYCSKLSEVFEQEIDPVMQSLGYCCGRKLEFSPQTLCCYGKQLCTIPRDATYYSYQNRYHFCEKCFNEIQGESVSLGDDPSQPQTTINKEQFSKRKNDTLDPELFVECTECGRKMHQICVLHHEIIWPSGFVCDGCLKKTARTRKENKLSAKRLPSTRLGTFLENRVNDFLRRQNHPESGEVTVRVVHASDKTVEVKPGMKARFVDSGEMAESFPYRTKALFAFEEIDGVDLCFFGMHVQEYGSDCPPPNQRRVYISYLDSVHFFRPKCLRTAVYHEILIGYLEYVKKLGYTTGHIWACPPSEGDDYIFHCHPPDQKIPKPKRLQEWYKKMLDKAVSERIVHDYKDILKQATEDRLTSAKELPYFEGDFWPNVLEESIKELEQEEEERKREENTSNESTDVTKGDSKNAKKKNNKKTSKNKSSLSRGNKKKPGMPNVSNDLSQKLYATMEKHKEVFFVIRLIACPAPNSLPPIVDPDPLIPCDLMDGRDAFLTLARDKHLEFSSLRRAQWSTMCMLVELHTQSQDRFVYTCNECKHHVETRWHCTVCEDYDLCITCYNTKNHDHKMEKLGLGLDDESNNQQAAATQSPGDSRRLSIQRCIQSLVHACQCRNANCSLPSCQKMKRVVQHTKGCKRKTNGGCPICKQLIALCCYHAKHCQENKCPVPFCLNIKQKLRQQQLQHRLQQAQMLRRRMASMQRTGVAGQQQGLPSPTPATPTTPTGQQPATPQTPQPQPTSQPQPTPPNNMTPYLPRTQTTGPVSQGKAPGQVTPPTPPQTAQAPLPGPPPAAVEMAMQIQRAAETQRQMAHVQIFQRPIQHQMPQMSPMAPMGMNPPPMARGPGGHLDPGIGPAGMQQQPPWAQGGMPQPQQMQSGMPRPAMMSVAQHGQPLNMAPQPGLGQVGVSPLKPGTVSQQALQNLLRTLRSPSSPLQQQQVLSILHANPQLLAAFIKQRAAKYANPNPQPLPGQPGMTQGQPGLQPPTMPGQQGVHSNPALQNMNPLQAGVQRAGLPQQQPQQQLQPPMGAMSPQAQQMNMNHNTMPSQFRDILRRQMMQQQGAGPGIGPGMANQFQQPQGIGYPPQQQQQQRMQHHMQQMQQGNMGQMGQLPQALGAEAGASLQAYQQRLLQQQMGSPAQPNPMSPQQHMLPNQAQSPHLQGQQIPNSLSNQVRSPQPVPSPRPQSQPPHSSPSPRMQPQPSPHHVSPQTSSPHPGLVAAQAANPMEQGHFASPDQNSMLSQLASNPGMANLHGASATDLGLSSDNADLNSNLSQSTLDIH

Legend:
Experiment in all cases: co-IP; liver tissue lysates of C57BL/6 J mice (normal diet, high fat & sucrose diet model, and groups treated with BER + CUR, LBC, LSDBC or DEAE-DEX@LSDBC); supernatant with antibody (anti-TXNIP or anti-p300, 1 μg/100 μL) at 4 °C overnight, protein A/G-agarose beads 4 h at 4 °C, washed 4 times with lysis buffer; western blot
[1] = biological target: acetyltransferase p300 (mouse (endogenous in C57BL/6 J mouse liver)) (UniProt B2RWS6)
[2] = biological target: acetyltransferase p300 (mouse (endogenous in C57BL/6 J mouse liver)), B2RWS6; settings: remark: other sources report otherwise
[3] = biological target: T1, thioredoxin-interacting protein (mouse (endogenous in C57BL/6 J mouse liver)) (UniProt Q8BG60)
T1 sequence: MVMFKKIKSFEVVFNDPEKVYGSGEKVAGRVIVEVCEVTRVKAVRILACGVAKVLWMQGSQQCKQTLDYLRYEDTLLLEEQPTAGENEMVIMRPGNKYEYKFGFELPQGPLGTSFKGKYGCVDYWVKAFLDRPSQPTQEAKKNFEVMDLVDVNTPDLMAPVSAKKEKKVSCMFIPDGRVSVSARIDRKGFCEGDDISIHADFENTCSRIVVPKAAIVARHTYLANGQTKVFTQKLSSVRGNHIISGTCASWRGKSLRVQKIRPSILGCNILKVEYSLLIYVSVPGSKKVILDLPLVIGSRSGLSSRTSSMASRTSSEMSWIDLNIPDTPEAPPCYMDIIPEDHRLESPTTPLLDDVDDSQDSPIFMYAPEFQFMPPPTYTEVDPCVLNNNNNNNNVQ

binding [1]: binds
B1: Nuclear factor erythroid-2 related factor 2 (protein, UniProt Q60795 1-597)
chain: MMDLELPPPGLQSQQDMDLIDILWRQDIDLGVSREVFDFSQRQKDYELEKQKKLEKERQEQLQKEQEKAFFAQFQLDEETGEFLPIQPAQHIQTDTSGSASYSQVAHIPKQDALYFEDCMQLLAETFPFVDDHESLALDIPSHAESSVFTAPHQAQSLNSSLEAAMTDLSSIEQDMEQVWQELFSIPELQCLNTENKQLADTTAVPSPEATLTEMDSNYHFYSSISSLEKEVGNCGPHFLHGFEDSFSSILSTDDASQLTSLDSNPTLNTDFGDEFYSAFIAEPSDGGSMPSSAAISQSLSELLDGTIEGCDLSLCKAFNPKHAEGTMEFNDSDSGISLNTSPSRASPEHSVESSIYGDPPPGFSDSEMEELDSAPGSVKQNGPKAQPAHSPGDTVQPLSPAQGHSAPMRESQCENTTKKEVPVSPGHQKAPFTKDKHSSRLEAHLTRDELRAKALHIPFPVEKIINLPVDDFNEMMSKEQFNEAQLALIRDIRRRGKNKVAAQNCRKRKLENIVELEQDLGHLKDEREKLLREKGENDRNLHLLKRRLSTLYLEVFSMLRDEDGKPYSPSEYSLQQTRDGNVFLVPKSKKPDTKKN

binding [2]: binds
B2: p65, a subunit of NF-κB, Q04207 1-549 (protein)
chain: MDDLFPLIFPSEPAQASGPYVEIIEQPKQRGMRFRYKCEGRSAGSIPGERSTDTTKTHPTIKINGYTGPGTVRISLVTKDPPHRPHPHELVGKDCRDGYYEADLCPDRSIHSFQNLGIQCVKKRDLEQAISQRIQTNNNPFHVPIEEQRGDYDLNAVRLCFQVTVRDPAGRPLLLTPVLSHPIFDNRAPNTAELKICRVNRNSGSCLGGDEIFLLCDKVQKEDIEVYFTGPGWEARGSFSQADVHRQVAIVFRTPPYADPSLQAPVRVSMQLRRPSDRELSEPMEFQYLPDTDDRHRIEEKRKRTYETFKSIMKKSPFNGPTEPRPPTRRIAVPTRNSTSVPKPAPQPYTFPASLSTINFDEFSPMLLPSGQISNQALALAPSSAPVLAQTMVPSSAMVPLAQPPAPAPVLTPGPPQSLSAPVPKSTQAGEGTLSEALLHLQFDADEDLGALLGNSTDPGVFTDLASVDNSEFQQLLNQGVSMSHSTAEPMLMEYPEAITRLVTGSQRPPDPAPTPLGTSGLPNGLSGDEDFSSIADMDFSALLSQISS

binding [3]: binds
B3: thioredoxin (protein, UniProt P10639 1-105)
chain: MVKLIESKEAFQEALAAAGDKLVVVDFSATWCGPCKMIKPFFHSLCDKYSNVVFLEVDVDDCQDVAADCEVKCMPTFQFYKKGQKVGEFSGANKEKLEASITEYA
